Reference: patent US20230272047A1
No constants are given. Whether binding was seen depends on the method and setting. Sequences can lack the tags named with a protein.

Legend:
CTLA4 = assay: yeast surface display, flow cytometry (PE signal)
IL17 = assay: yeast surface display, flow cytometry (PE signal)

- binding (CTLA4): no binding
- binding (IL17): no binding
B1: 2DS25 displayed on the yeast surface as Myc tagged Aga2p fusion protein (designed binder, not shown: large carriers; small tags and cut ends)
chain: DEEEIQKAIEELLRKGVSEEEAAIIIAQRFNVAVVVVVQDERQAKHISEYIRRYIPEADVILFANIVVIKVETEELRKRVWEAAQKAY
